Experimental data reported in publication PMC10568461, “A pilot study of cerebral metabolism and serotonin 5-HT2A receptor occupancy in rats treated with the psychedelic tryptamine DMT in conjunction with the MAO inhibitor harmine” (Frontiers in Pharmacology, 2023).

Assay: Blood glucose during the PET session (experiment 1)
Assay type: in vivo, rat
Conditions: mean (SD)
[1] = T1, baseline at the time of the first injection (t = 0 min)
[2] = T2, at the time of [18F]FDG injection (t + 25 min)
[3] = T3, before start of PET scan (t + 70 min)

SMILES: COc1ccc2c(c1)[nH]c1c(C)nccc12 [harmine]
- Plasma glucose concentration [1]: 6.55 (0.73) mmol/L
- Plasma glucose concentration [2]: 6.97 (0.7) mmol/L
- Plasma glucose concentration [3]: 5.95 (0.91) mmol/L

SMILES: CN(C)CCc1c[nH]c2ccccc12 [DMT, N,N-dimethyltryptamine]
- Plasma glucose concentration [1]: 6.17 (0.54) mmol/L
- Plasma glucose concentration [2]: 5.87 (0.65) mmol/L
- Plasma glucose concentration [3]: 6.33 (0.6) mmol/L
